From publication PMC5397059 (PLoS ONE, 2017)
Non-standard residues stand in square brackets, D forms with d. *: point of attachment. Asn(Trt) = N[C@@H](CC(=O)NC(c1ccccc1)(c1ccccc1)c1ccccc1)C(=O)O; dPhe(4-Cl) = N[C@H](Cc1ccc(Cl)cc1)C(=O)O; NMeN = CN[C@@H](CC(N)=O)C(=O)O; NMeL = CN[C@@H](CC(C)C)C(=O)O; dNMeL = CN[C@H](CC(C)C)C(=O)O; NMeV = CN[C@H](C(=O)O)C(C)C; dOrn = NCCC[C@@H](N)C(=O)O; Boc = CC(C)(C)OC(=O)*; tBu = CC(C)(C)*

Experiment: general procedure: Fmoc solid-phase peptide synthesis; 2-chlorotrityl chloride resin; HATU/DIPEA in NMP; cyclisation in solution with HATU/HOBt/DIPEA
Details: for crude HPLC purity / final HPLC purity: UPLC-MS (UV); for crude yield: whole synthesis; for cyclisation yield: cyclisation step

| Substance | step yield (late stage modification step) | cyclisation yield | final HPLC purity (late stage modification step) | also measured |
| --- | --- | --- | --- | --- |
| cyclo(IN[dR]WL[dL]) (SMILES CC[C@H](C)[C@@H]1NC(=O)[C@@H](CC(C)C)NC(=O)[C@H](CC(C)C)NC(=O)[C@H](Cc2c[nH]c3ccccc23)NC(=O)[C@@H](CCCNC(=N)N)NC(=O)[C@H](CC(N)=O)NC1=O) | 70% | – | – | crude HPLC purity (late stage modification step): 96% |
| H-[dPhe(4-Cl)]V[Asn(Trt)][dOrn](Boc)W(Boc)L-OH | – | – | – | crude yield (scale 0.1 mmol): 70% |
| cyclo(D-Phe (4-Cl)-Ile-D-Orn(Boc)-D-Orn(Boc)-Trp(Boc)-Leu) | – | 55% | – | – |
| cyclo(W(Boc)[dOrn](Boc)[Asn(Trt)]V[dL]L) | – | 50% | – | – |
| cyclo(L[dL]VN[dOrn]Y(Me)) (SMILES COc1ccc(C[C@@H]2NC(=O)[C@@H](CCCN)NC(=O)[C@H](CC(N)=O)NC(=O)[C@H](C(C)C)NC(=O)[C@@H](CC(C)C)NC(=O)[C@H](CC(C)C)NC2=O)cc1) | 82% | – | 99.9% | – |
| cyclo([dL][NMeV][Asn(Trt)][dOrn](Boc)W(Boc)L) | – | 60% | – | – |
| cyclo(I[dOrn][dOrn]WL[dPhe(4-Cl)]) (SMILES CC[C@H](C)[C@@H]1NC(=O)[C@@H](Cc2ccc(Cl)cc2)NC(=O)[C@H](CC(C)C)NC(=O)[C@H](Cc2c[nH]c3ccccc23)NC(=O)[C@@H](CCCN)NC(=O)[C@@H](CCCN)NC1=O) | 50% | – | 96% | – |
| cyclo([Asn(Trt)][dOrn](Boc)W(Boc)[dPhe(4-Cl)][dL]V) | – | 54% | – | – |
| cyclo (D-Leu-Ile-Asn(Trt)-D-Orn(Boc)-Trp(Boc)-Leu) | – | 52% | – | – |
| H-[dPhe(4-Cl)]I[dOrn](Boc)[dOrn](Boc)W(Boc)L-OH | – | – | – | crude yield (scale 0.44 mmol): 99% |
| H-[dL]VA[dOrn](Boc)W(Boc)L-OH | – | – | – | crude yield (scale 0.3 mmol): 99% |
| cyclo(L[dL][NMeV]N[dOrn]W) (SMILES CC(C)C[C@@H]1NC(=O)[C@H](Cc2c[nH]c3ccccc23)NC(=O)[C@@H](CCCN)NC(=O)[C@H](CC(N)=O)NC(=O)[C@H](C(C)C)N(C)C(=O)[C@@H](CC(C)C)NC1=O) | 71% | – | 98% | – |
| cyclo(L[dL]MN[dOrn]W) (SMILES CSCC[C@@H]1NC(=O)[C@@H](CC(C)C)NC(=O)[C@H](CC(C)C)NC(=O)[C@H](Cc2c[nH]c3ccccc23)NC(=O)[C@@H](CCCN)NC(=O)[C@H](CC(N)=O)NC1=O) | 74% | – | 95% | – |
| cyclo(LWVN[dOrn][dL]) (SMILES CC(C)C[C@@H]1NC(=O)[C@@H](CC(C)C)NC(=O)[C@@H](CCCN)NC(=O)[C@H](CC(N)=O)NC(=O)[C@H](C(C)C)NC(=O)[C@H](Cc2c[nH]c3ccccc23)NC1=O) | 89% | – | 97% | – |
| cyclo([dL]V[dOrn](Boc)[dOrn](Boc)W(Boc)L) | – | 40% | – | – |
| H-[Asn(Trt)][dOrn](Boc)W(Boc)LIV-OH | – | – | – | crude yield (scale 0.25 mmol): 85% |
| H2N-D-Leu-Val-Asn (Trt)-D-Orn(Boc)- Phe(4-OMe)-Leu- COOH | – | – | – | crude yield (scale 0.3 mmol): 96% |
| cyclo(L[dNMeL]V[NMeN][dOrn]W) (SMILES CC(C)C[C@@H]1NC(=O)[C@H](Cc2c[nH]c3ccccc23)NC(=O)[C@@H](CCCN)NC(=O)[C@H](CC(N)=O)N(C)C(=O)[C@H](C(C)C)NC(=O)[C@@H](CC(C)C)N(C)C1=O) | 63% | – | 98% | – |
| cyclo(W(Boc)L[dL]IS(tBu)[dOrn](Boc)) | – | 68% | – | – |

| Substance | step yield (late stage modification step) | cyclisation yield | final HPLC purity (late stage modification step) | also measured |
| --- | --- | --- | --- | --- |
| cyclo(AL[dL]VN[dOrn]) (SMILES CC(C)C[C@@H]1NC(=O)[C@H](C)NC(=O)[C@@H](CCCN)NC(=O)[C@H](CC(N)=O)NC(=O)[C@H](C(C)C)NC(=O)[C@@H](CC(C)C)NC1=O) | 92% | – | 90% | – |
| cyclo(D-Leu-Val-Asn(Trt)-D-Orn(Boc)-Phe(4-OMe)-Leu) | – | 41% | – | – |
| H-[dL]I[Asn(Trt)][dOrn](Boc)W(Boc)L-OH | – | – | – | crude yield (scale 0.3 mmol): 88% |
| cyclo(IS[dOrn]WL[dL]) (SMILES CC[C@H](C)[C@@H]1NC(=O)[C@@H](CC(C)C)NC(=O)[C@H](CC(C)C)NC(=O)[C@H](Cc2c[nH]c3ccccc23)NC(=O)[C@@H](CCCN)NC(=O)[C@H](CO)NC1=O) | 45% | – | 98% | difficulty met (late stage modification step): incomplete deprotection of the t-Bu protecting group of serine |
| cyclo(L[dA]VN[dOrn]W) (SMILES CC(C)C[C@@H]1NC(=O)[C@H](Cc2c[nH]c3ccccc23)NC(=O)[C@@H](CCCN)NC(=O)[C@H](CC(N)=O)NC(=O)[C@H](C(C)C)NC(=O)[C@@H](C)NC1=O) | 72% | – | 92% | – |
| cyclo(A[dOrn]WL[dL]V) (SMILES CC(C)C[C@@H]1NC(=O)[C@H](Cc2c[nH]c3ccccc23)NC(=O)[C@@H](CCCN)NC(=O)[C@H](C)NC(=O)[C@H](C(C)C)NC(=O)[C@@H](CC(C)C)NC1=O) | 80% | – | 99.9% | – |
| cyclo(L[dL]V[dOrn][dOrn]W) (SMILES CC(C)C[C@@H]1NC(=O)[C@H](Cc2c[nH]c3ccccc23)NC(=O)[C@@H](CCCN)NC(=O)[C@@H](CCCN)NC(=O)[C@H](C(C)C)NC(=O)[C@@H](CC(C)C)NC1=O) | 70% | – | – | crude HPLC purity (late stage modification step): 97% |
| H-[dL]V[Asn(Trt)][dOrn](Boc)AL-OH | – | – | – | crude yield (scale 0.3 mmol): 103% |
| cyclo(AN[dOrn]WL[dL]) (SMILES CC(C)C[C@@H]1NC(=O)[C@H](Cc2c[nH]c3ccccc23)NC(=O)[C@@H](CCCN)NC(=O)[C@H](CC(N)=O)NC(=O)[C@H](C)NC(=O)[C@@H](CC(C)C)NC1=O) | 88% | – | 99.9% | – |
| cyclo(Trp(Boc)-Leu-N-Me-D-Leu-Val-N-Me-Asn(Trt)-D-Orn(Boc)) | – | 60% | – | – |
| cyclo (D-Leu-Met-Asn(Trt)-D-Orn(Boc)-Trp(Boc)-Leu) | – | 40% | – | – |
| H-[dA]V[Asn(Trt)][dOrn](Boc)W(Boc)L-OH | – | – | – | crude yield (scale 0.3 mmol): 72% |
| cyclo(W(Boc)[dOrn](Boc)[Asn(Trt)]V[dL]A) | – | 45% | – | – |
| cyclo([dPhe(4-Cl)]V[Asn(Trt)][dOrn](Boc)W(Boc)L) | – | 53% | – | – |
| cyclo(N[dOrn]W[dPhe(4-Cl)][dL]V) (SMILES CC(C)C[C@H]1NC(=O)[C@@H](Cc2ccc(Cl)cc2)NC(=O)[C@H](Cc2c[nH]c3ccccc23)NC(=O)[C@@H](CCCN)NC(=O)[C@H](CC(N)=O)NC(=O)[C@H](C(C)C)NC1=O) | 80% | – | 99.9% | – |
| cyclo(A[dL]VN[dOrn]W) (SMILES CC(C)C[C@H]1NC(=O)[C@H](C)NC(=O)[C@H](Cc2c[nH]c3ccccc23)NC(=O)[C@@H](CCCN)NC(=O)[C@H](CC(N)=O)NC(=O)[C@H](C(C)C)NC1=O) | 80% | – | 98% | – |
| H-[Asn(Trt)][dOrn](Boc)W(Boc)[dPhe(4-Cl)][dL]V-OH | – | – | – | crude yield (scale 0.25 mmol): 80% |
| H-[dL]V[Asn(Trt)][dOrn](Boc)W(Boc)L-OH | – | – | – | crude yield (scale 0.3 mmol): 87% |
| cyclo(IS(tBu)[dOrn]WL[dL]) (SMILES CC[C@H](C)[C@@H]1NC(=O)[C@@H](CC(C)C)NC(=O)[C@H](CC(C)C)NC(=O)[C@H](Cc2c[nH]c3ccccc23)NC(=O)[C@@H](CCCN)NC(=O)[C@H](COC(C)(C)C)NC1=O) | 30% | – | 97% | – |

| Substance | step yield (late stage modification step) | cyclisation yield | final HPLC purity (late stage modification step) | also measured |
| --- | --- | --- | --- | --- |
| cyclo(W(Boc)[dOrn](Boc)[Asn(Trt)]A[dL]L) | – | 56% | – | – |
| cyclo (D-Leu-Ile-Asn(Trt)-D-Arg (Pbf)-Trp(Boc)-Leu) | – | 70% | – | – |
| cyclo(A[dOrn](Boc)[Asn(Trt)]V[dL]L) | – | 43% | – | – |
| cyclo(L[dL]VN[dOrn][dPhe(4-Cl)]) (SMILES CC(C)C[C@@H]1NC(=O)[C@@H](Cc2ccc(Cl)cc2)NC(=O)[C@@H](CCCN)NC(=O)[C@H](CC(N)=O)NC(=O)[C@H](C(C)C)NC(=O)[C@@H](CC(C)C)NC1=O) | 91% | – | 99.9% | – |
| cyclo([dPhe(4-Cl)][dOrn](Boc)[Asn(Trt)]V[dL]L) | – | 43% | – | – |
| cyclo (Trp (Boc)-D-Orn(Boc)-Asn(Trt)-Val-D-Leu-Leu) | – | 68% | – | – |
| cyclo(IN[dOrn]WL[dL]) (SMILES CC[C@H](C)[C@@H]1NC(=O)[C@@H](CC(C)C)NC(=O)[C@H](CC(C)C)NC(=O)[C@H](Cc2c[nH]c3ccccc23)NC(=O)[C@@H](CCCN)NC(=O)[C@H](CC(N)=O)NC1=O) | 65% | – | 97% | – |
| cyclo(W(Boc)[dOrn](Boc)AV[dL]L) | – | 56% | – | – |
| cyclo(L[dPhe(4-Cl)]VN[dOrn]W) (SMILES CC(C)C[C@@H]1NC(=O)[C@H](Cc2c[nH]c3ccccc23)NC(=O)[C@@H](CCCN)NC(=O)[C@H](CC(N)=O)NC(=O)[C@H](C(C)C)NC(=O)[C@@H](Cc2ccc(Cl)cc2)NC1=O) | 75% | – | – | crude HPLC purity (late stage modification step): 91% |
| cyclo([dL]II[dOrn](Boc)W(Boc)L) | – | 54% | – | – |
| cyclo([Asn(Trt)][dOrn](Boc)W(Boc)LIV) | – | 47% | – | – |
| H-[Asn(Trt)][dOrn](Boc)W(Boc)I[dL]V-OH | – | – | – | crude yield (scale 0.25 mmol): 89% |
| cyclo (Trp(Boc)-N-Me-Leu-D-Leu-N-Me-Val-Asn(Trt)-D-Orn(Boc)) | – | 73% | – | – |
| cyclo(N[dOrn]W[NMeL][dL][NMeV]) (SMILES CC(C)C[C@H]1NC(=O)[C@H](CC(C)C)N(C)C(=O)[C@H](Cc2c[nH]c3ccccc23)NC(=O)[C@@H](CCCN)NC(=O)[C@H](CC(N)=O)NC(=O)[C@H](C(C)C)N(C)C1=O) | 60% | – | 99.9% | – |
| cyclo([dOrn]WL[dL]VN) (SMILES CC(C)C[C@@H]1NC(=O)[C@H](Cc2c[nH]c3ccccc23)NC(=O)[C@@H](CCCN)NC(=O)[C@H](CC(N)=O)NC(=O)[C@H](C(C)C)NC(=O)[C@@H](CC(C)C)NC1=O) | 91% | – | 99.9% | – |
| cyclo(W(Boc)[dOrn](Boc)[Asn(Trt)]V[dA]L) | – | 64% | – | – |
| cyclo(Val-N-Me-Asn(Trt)-D-Orn(Boc)-Trp(Boc)-N-Me-Leu-D-Leu) | – | 80% | – | – |
| H-[dL]A[Asn(Trt)][dOrn](Boc)W(Boc)L-OH | – | – | – | crude yield (scale 0.3 mmol): 87% |
| cyclo([Asn(Trt)][dOrn](Boc)W(Boc)I[dL]V) | – | 47% | – | – |
